Reference: the supplement of paper PMC3334620
Whole data set: some 33,000 sequences, median “E-score (-0.5 to 0.5)” near -0.016, cut for the highest 2% near 0.3. This is one part of the list.

target: T1, Yer184c (UniProt P39961); test: PBM E-score (8-mer binding enrichment) (E-score (-0.5 to 0.5)); higher = stronger / more preferred TF binding; settings: protein concentration: 100 nM; construct: GST-full length
T1 sequence: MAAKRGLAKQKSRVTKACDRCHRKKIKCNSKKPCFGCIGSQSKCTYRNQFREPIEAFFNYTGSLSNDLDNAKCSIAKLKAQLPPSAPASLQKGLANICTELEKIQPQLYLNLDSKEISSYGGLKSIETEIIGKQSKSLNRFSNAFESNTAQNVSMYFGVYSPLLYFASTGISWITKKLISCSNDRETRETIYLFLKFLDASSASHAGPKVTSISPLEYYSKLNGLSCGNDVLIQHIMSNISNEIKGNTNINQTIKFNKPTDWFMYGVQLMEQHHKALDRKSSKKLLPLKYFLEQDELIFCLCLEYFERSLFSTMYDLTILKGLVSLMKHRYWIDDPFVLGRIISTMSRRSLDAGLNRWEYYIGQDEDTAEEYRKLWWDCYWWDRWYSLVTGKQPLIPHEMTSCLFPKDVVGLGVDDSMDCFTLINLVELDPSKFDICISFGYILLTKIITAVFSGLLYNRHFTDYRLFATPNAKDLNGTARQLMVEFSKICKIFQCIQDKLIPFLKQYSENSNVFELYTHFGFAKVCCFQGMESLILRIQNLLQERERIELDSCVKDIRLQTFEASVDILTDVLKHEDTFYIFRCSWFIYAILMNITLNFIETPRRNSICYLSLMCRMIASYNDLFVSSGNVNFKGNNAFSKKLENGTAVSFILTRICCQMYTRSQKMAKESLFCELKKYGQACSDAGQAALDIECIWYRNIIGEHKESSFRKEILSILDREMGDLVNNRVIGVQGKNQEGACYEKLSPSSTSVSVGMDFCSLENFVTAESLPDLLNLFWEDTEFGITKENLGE
In short: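 The E-score, a modified Wilcoxon-Mann-Whitney statistic, was computed by the Universal PBM Analysis Suite for every ungapped eight-base word pooled with its reverse complement. Scans behind it were normalised with masliner after bound GST-tagged yeast transcription factors were detected with fluorescent anti-GST. The proteins, at about 100-200 nM, had been applied to universal all-10-mer Agilent arrays made double-stranded by primer extension.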

Sequence | PBM E-score
AGCGGAGC | -0.0345
GGGCGTTA | -0.123
GTCCGACA | 0.201
TAGTCTGA | 0.0733
ACACCGAC | 0.153
ATGATTTA | 0.141
GGCAAATA | 0.152
CATCGGGA | 0.163
CAGGAGGG | -0.237
GTCCCATA | -0.202
GCAACCAA | 0.124
CTTCCCAC | -0.0708
AGAACTAA | 0.18
GGAACACC | 0.081
ATCGACGG | -0.124
TCAACGCA | -0.0171
GACCCTCC | -0.0144
GACGGTGA | -0.106
CGTAGAGC | -0.116
CCATTCGA | -0.13
CATAATTA | 0.233
CTCCGAGC | 0.271
AAGATGTA | -0.0561
ACGGGTTC | 0.0138
ACCCTAAT | -0.114

Sequence | PBM E-score
GGCTCTAC | -0.0478
TAAGACAA | 0.0651
GGCTCAAC | 0.00041
CCGAAATC | 0.284
CGTCTTAC | -0.0959
CCCTTACG | -0.254
TGTGCAAA | -0.116
CATATCTA | 0.0744
AGCGGGTA | -0.0774
AACACGCA | 0.0105
CGTCTCCC | 0.0152
GCATGCGC | -0.0828
AGACTTGA | -0.0487
AGTACAAT | 0.139
TGTTGGAA | 0.127
CATGCCCC | -0.232
AGCAGATC | -0.00356
ATATTTGC | 0.207
ATCGCAGG | -0.173
GAGCGTGC | -0.0226
AAATAACG | 0.085
GCAGAGGC | -0.21
CGGGCGAG | 0.0378
ATCGCCTG | -0.0991
AGACGCAA | 0.127

Sequence | PBM E-score
GGGCAGAA | 0.0881
ATTGAGAC | 0.0754
CACTTTAG | -0.228
GGATGTAA | 0.193
GGATTCTA | 0.0641
ATCTGTTC | 0.0367
CTCGTAGC | -0.0534
AGCGAGGA | 0.00211
CATGAAAG | -0.05
CATACGGA | 0.263
CCGGGCGC | 0.178
AGGGCAAA | -0.0339
GCGCAAAC | -0.0188
GCTGCAAC | -0.0333
ATGTGTTC | 0.163
GCCAGCAC | -0.154
TCCGGAAA | 0.449
TCGACGAA | 0.116
CGCACCCG | 0.134
GTTAGGAA | 0.0947
CACATGAG | -0.293
ATGCCCGC | -0.0889
CAACTACC | -0.0226
CGAGCGCA | 0.129
TAGACGCA | 0.0173

6 entries drawn at random from those above, as already listed:
Sequence | PBM E-score
AGGGCAAA | -0.0339
CGAGCGCA | 0.129
ATGTGTTC | 0.163
CAACTACC | -0.0226
CATACGGA | 0.263
TCGACGAA | 0.116

Next records.

Sequence | PBM E-score
ACTTAAAC | 0.0716
CTGTCCAC | -0.0573
AAATATAA | 0.327
CCACGAGG | -0.166
ACTACAGC | -0.015
CCGGGCGA | 0.0828
AAACCGAG | 0.177
ATGACACG | 0.0436
AGCGTCGC | -0.123
GCATAATA | 0.18
AGGACGGA | -0.125
AAGCAGGG | -0.147
ACAATTTG | -0.0492
AAACTGTA | 0.0379
GGTGGGGA | -0.00331
AGTGTAAT | -0.0238
CACTAAAC | 0.142
AAACGGCG | 0.133
CCCATGCA | -0.162
TCTATAAA | 0.11
CATCTTAC | -0.139
ACAACTAT | 0.201
AGCATAGG | -0.286
CGGATATC | 0.285
ATAGTCGA | 0.0238

Some of the entries above, set out differently.
AGGACGGA
  PBM E-score: -0.125
AAGCAGGG
  PBM E-score: -0.147
ACAATTTG
  PBM E-score: -0.0492
AAACGGCG
  PBM E-score: 0.133

Following part

Sequence | PBM E-score
ACACTAGA | 0.0639
AAGTAGGC | -0.077
AGATGCCG | 0.24
AGGGGATG | -0.235
ACGATGGA | 0.0157
ATTGATGA | 0.0515
CGGCCCAA | 0.197
CGGAACCA | 0.338
GACTAGCC | -0.191
ACCGCGAG | -0.0856
TTAGTAAA | 0.237
GCTTGTTA | 0.0601
GCCCTTTA | -0.293
AATAAGCT | 0.155
ACCACCAT | -0.0904
GATTTAAA | -0.00451
CGTCTTGC | -0.128
AGGGCTTC | -0.0909
GGCCGATA | 0.264
ATCAAGAT | 0.0506
TTCACGAA | -0.0327
ATGGCTTA | -0.00903
ACCTATCG | -0.0246
TACTTTAA | 0.0235
ACAAGGGG | -0.21

Sequence | PBM E-score
CAGGCCCC | -0.398
CCAATATA | -0.067
CATTCCGG | 0.318
GCCATTAC | -0.155
GCTATAGC | -0.149
AAGCTAGG | 0.0176
CCCCAGTC | -0.277
CAGCAATA | 0.0101
AGCCGAGA | 0.326
GGCACCCC | -0.327
ATAGACGC | 0.00262
CCGCTGCA | -0.0816
ATCAGGAA | 0.068
CTGTGACA | -0.0291
CTGCGAAG | -0.237
AACAGAGC | 0.00129
AACATCTG | -0.0891
AATCTTCT | -0.0361
AGAATCCG | 0.252
TCGGGAGA | -0.0578
AGACACGG | 0.0867
CTGTCTTA | 0.0838
ATGCCCCA | -0.192
CGACTAGC | -0.0269
CAAGGAGG | -0.165

Sequence | PBM E-score
ACATTTTG | 0.00796
CCACAAAG | 0.0966
CCGAATAA | 0.346
ACCCACAT | -0.0165
ACAGAAGA | 0.029
GTACGCTA | -0.172
ACGGTGTG | -0.0972
CAACAACC | 0.0302
CCTCTGAC | -0.149
CTAAGTTA | 0.0886
AAGATCAT | 0.0392
CGAGCCAC | -0.181
TCCTCAGA | -0.118
CGCGCAAG | 0.172
GATTAATA | 0.154
GGGGAATA | -0.0423
TAAAACAA | 0.196
ATAACGAC | -0.0981
CCAACGAC | -0.102
ACCAGACC | -0.0678
GAGAATTA | 0.104
ACCTCCGG | 0.357
